# Results from article PMC11024458.
# Columns and labels:
# [1] = biological target: T1, VdSti1-nLUC (Verticillium dahliae) (UniProt G2X8V1); experiment: split reporter; luciferase complementation imaging (LCI): Agrobacterium with VdSti1-nLUC and VdExt2-cLUC mixed 1:1 and injected into 4 week-old tobacco (N. benthamiana) leaves; signal read with a cooled CCD
# T1 sequence: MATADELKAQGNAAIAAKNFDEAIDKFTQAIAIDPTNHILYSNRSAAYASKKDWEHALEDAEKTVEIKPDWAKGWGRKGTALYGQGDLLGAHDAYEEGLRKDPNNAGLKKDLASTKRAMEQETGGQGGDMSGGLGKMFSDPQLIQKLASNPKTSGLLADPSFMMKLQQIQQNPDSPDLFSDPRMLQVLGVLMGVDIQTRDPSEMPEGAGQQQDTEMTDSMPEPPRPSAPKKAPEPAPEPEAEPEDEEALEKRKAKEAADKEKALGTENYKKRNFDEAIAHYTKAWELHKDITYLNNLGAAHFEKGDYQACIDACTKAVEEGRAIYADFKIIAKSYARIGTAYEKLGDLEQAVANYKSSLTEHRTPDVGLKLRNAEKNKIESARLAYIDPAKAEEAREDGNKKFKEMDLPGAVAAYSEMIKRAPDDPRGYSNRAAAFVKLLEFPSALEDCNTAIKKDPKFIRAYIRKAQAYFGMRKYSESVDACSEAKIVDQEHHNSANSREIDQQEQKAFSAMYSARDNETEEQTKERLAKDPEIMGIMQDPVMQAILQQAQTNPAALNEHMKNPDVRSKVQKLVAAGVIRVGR
# [2] = biological target: T2, VdSti1 (pGBKT7-VdSti1 bait) (Verticillium dahliae) (UniProt G2X8V1); experiment: two-hybrid; one-to-one verification: pGADT7 prey with pGBKT7-VdSti1 in yeast; SD-Leu-Trp, then SD-His-Leu-Trp-Ade with X-alpha-gal, growth observed after 1 week
# T2 sequence: T1 sequence
Substance,binding [1],binding [2]
VdExt2-cLUC (Verticillium dahliae),binds,–
exostosin-2 protein VdExt2 (pGADT7 prey) (Verticillium dahliae),–,binds

# Results are given in words; binding and its absence hold for the method and conditions named. Binding calls can cover weak binding; strength is not graded here. For some assays here: Binding seen in cells or lysates may run through a third protein. For some assays here: Tags and fused reporters may be left off the sequences shown.
